The exact form of at least one protein or probe is not confirmed. At least one result comes from cells or an extract, where the contact may be indirect. Negatives hold for the conditions tested. Tags and fusion partners may be left off the protein sequences shown.
Key:
[1] = biological target: T1, Sox9 (UniProt Q04887); assay: EMSA; details: EMSA with Chemiluminescent Nucleic Acid Detection Module (Thermo Scientific), manufacturer's protocol, pH and temperature not stated, protein in a lysate after overexpression
T1 sequence (looked up, limits assumed): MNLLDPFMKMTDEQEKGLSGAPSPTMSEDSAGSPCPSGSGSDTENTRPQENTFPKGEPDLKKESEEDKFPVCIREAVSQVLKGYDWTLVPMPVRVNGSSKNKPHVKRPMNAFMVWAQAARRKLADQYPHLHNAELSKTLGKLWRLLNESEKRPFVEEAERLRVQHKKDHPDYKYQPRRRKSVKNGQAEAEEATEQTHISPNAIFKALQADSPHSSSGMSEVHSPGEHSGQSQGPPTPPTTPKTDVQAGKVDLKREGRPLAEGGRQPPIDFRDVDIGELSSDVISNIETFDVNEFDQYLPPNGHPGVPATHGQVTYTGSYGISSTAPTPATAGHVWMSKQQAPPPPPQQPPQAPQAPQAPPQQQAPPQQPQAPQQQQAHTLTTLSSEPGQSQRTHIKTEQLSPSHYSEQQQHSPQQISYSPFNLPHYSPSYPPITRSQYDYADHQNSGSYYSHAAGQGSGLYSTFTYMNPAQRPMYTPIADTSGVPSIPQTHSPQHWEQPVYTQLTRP

[2] = biological target: T1, Sox9; assay: competition with a labelled probe; details: unlabeled mutated competitor does not abolish binding to Sox-wt probe; EMSA with Chemiluminescent Nucleic Acid Detection Module (Thermo Scientific), manufacturer's protocol; pH and temperature not stated; protein in a lysate after overexpression

Sequence | binding result ([1]; mutated probe, lane 5) | binding result [2] | binding result ([1]; abolished by 100-fold excess unlabeled competitor)
GGTAACCTTGTCTCAAAAACGCAACAACAAAATCCTATGA (double strand) [Sox-mt] | no binding | no binding | –
GGTAACCTTGTCTCAAAAACAAAACAACAAAATCCTATGA (double strand) [Sox-wt (Bbf2h7 promoter, downstream Sox motif)] | – | – | binds

— article PMC4022855
